# Reference: PubChem BioAssay AID624297 (National Center for Advancing Translational Sciences (NCATS), 2012)
# Among all 340,000 compounds or so, about 6,200 (1.8%) were called active. The inconclusive results got no clear call from the source; some entries with a clear call stand among them for comparison. Calls come from the whole dose curve; as a rule, active = well fitted activation curve with a large enough effect; inconclusive = small, poorly fitted or top-dose-only effect; inactive = no such curve, though single readings can be large or run the other way. Potencies beside an inconclusive call are fits to weak or partial responses and may not hold up.
# Test: A quantitative high throughput screen for small molecules that induce DNA re-replication in SW480 colon adenocarcinoma cells. Note: nearly all actives have a fitted effect of over 55% in size.
# Conditions: Hoechst DNA content imaging, 48 h; series mostly up to 46.1 µM
# How it was run: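 250 cells/well; 23 nL cpd via pin tool; 48 hr, 37 C, 5% CO2; Hoechst 40 min; imager read of total nuclear intensity, ex 405/em 500-530 nm.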
# Potency is the fitted concentration of half-maximal effect.
row,Structure (SMILES),Potency
1,O=C(C1CCN(S(=O)(=O)c2ccc(Cl)s2)CC1)N1CCN(c2ccccc2)CC1,inactive
2,Cc1sc2nc(SCc3ccccc3)n(Cc3ccco3)c(=O)c2c1C,inactive
3,O=C1c2ccccc2C(=O)N1OCc1ccccc1[N+](=O)[O-],"inconclusive: 0.116 µM [activator, full curve, poor fit]"
4,COc1ccccc1NC(=O)CSc1nnc(-c2ccccc2)o1,inactive
5,Fc1ccc(-c2cc3nc(-c4ccccc4)cc(N4CCOCC4)n3n2)cc1,"inconclusive: 29.1 µM [activator, single point]"
6,COc1cccc(CNC(=O)c2ccccc2-c2ccccc2)c1,"inconclusive: 29.1 µM [activator, single point]"
7,O=S(=O)(Nc1cccnc1Cl)c1ccc(F)cc1,inactive
8,CCOc1ccc(S(=O)(=O)N2CCCC(C(=O)N3CCOCC3)C2)cc1C (centres undefined),inactive
9,COc1ccccc1N1CCN(C(=O)c2c(-c3ccccc3)noc2C)CC1,"inconclusive: 20.6 µM [activator, single point]"
10,CN(C(=O)c1ccccc1F)C(c1ccccc1)c1ccccc1,"inconclusive: 18.4 µM [activator, single point]"
11,Cn1c(=O)c(C(=O)COC(=O)c2cc(-c3ccco3)nc3ccccc23)c(N)n(Cc2ccccc2)c1=O,"inconclusive: 29.1 µM [activator, single point]"
12,O=c1oc2ccccc2cc1-c1cn2ccccc2n1,"inconclusive: 16.4 µM [activator, single point]"
13,CCN(CC)c1ccc(CNc2nc3ccccc3n2CCN2CCCCC2)cc1,"inconclusive: 18.4 µM [activator, single point]"
14,CSCc1c(C(=O)Nc2ccccc2N2CCOCC2)oc2ccccc12,"inconclusive: 23.1 µM [activator, single point]"
15,CCN(CC)c1ccc(/C=N/NC(=S)NCc2ccccc2)c(O)c1,active: 16.4 µM
16,COc1ccc(C[C@](C)(N)C(=O)O)cc1OC,"inconclusive: 28.2 µM [activator, single point]"
17,O=[N+]([O-])c1ccc(N2CCN(c3ccccc3)CC2)nc1,inactive
18,CCOC(=O)C1=C(COC(=O)C2(C)CC2(Cl)Cl)NC(=O)NC1c1ccccc1 (centres undefined),inactive
19,CCCn1c(SCC(=O)Nc2ccccc2N2CCOCC2)nc2c1c(=O)n(C)c(=O)n2C,inactive
20,COc1ccc(C(=O)CSc2ncnc3nc[nH]c23)cc1,"inconclusive: 16.4 µM [activator, single point]"
21,COc1ccc(NS(=O)(=O)c2cccc(C(=O)NNC(=O)CN3C(=O)NC(C)(C)C3=O)c2)cc1,"inconclusive: 0.146 µM [activator, full curve, poor fit]"
22,COc1ccccc1C(=O)C1CCCN(C(=O)c2ccccn2)C1 (centres undefined),inactive
23,O=Cc1c(NCc2ccco2)nc2ccccn2c1=O,inactive
24,Oc1c(Br)cc(/C=N/NC(=S)NCc2ccco2)cc1Br,inactive
25,O=C(Nc1ccc(Cl)cc1)c1ccc(CN2CCc3ccccc3C2)cc1,"inconclusive: 0.116 µM [activator, full curve, poor fit]"

row,Structure (SMILES),Potency
1,O=C(CN1CCOCC1)Nc1ncc(Br)cc1Br,inactive
2,CC1CCN(CCCN2C(=O)C3C(C(=O)Nc4ccc(Cl)cc4)C4C=CC3(O4)C2C(=O)NC2CCCCC2)CC1 (centres undefined),"inconclusive: 16.4 µM [activator, single point]"
3,CCCCCCCCn1c2c(c(=N)c3c1CCC3)CCCC2,"inconclusive: 25.9 µM [activator, single point]"
4,CCN(C[C@H]1N[C@@](CC)(C(=O)OC)[C@H]2C(=O)N(C)C(=O)[C@@H]12)S(=O)(=O)c1ccccc1,inactive
5,CC(C)=O,inactive
6,COC(=O)C(CC(=O)c1ccc(Cl)cc1)c1ccccc1 (centres undefined),"inconclusive: 11.6 µM [activator, partial curve]"
7,COc1cc2cc(C(=O)N3CCOCC3)cc(-c3ccc(C)cc3)c2cc1OC,inactive
8,O=C(Nc1ccc(Cl)c(Cl)c1)N1N=CCC1c1ccccc1 (centres undefined),inactive
9,CCN(CC)C(=O)c1ccc2nc3ccccc3nc2c1,active: 5.17 µM
10,Cc1cc2nc(-c3ccc(SCC(=O)Nc4nccs4)nc3)[nH]c2cc1C,"inconclusive: 20.6 µM [activator, single point]"
11,O=C(/C=C/c1cccs1)c1ccc(NC(=O)c2ccccc2F)cc1,inactive
12,Cc1ccc(C2CN(c3ccccc3)CC2C(=O)c2ccc(F)cc2)cc1 (centres undefined),"inconclusive: 0.651 µM [activator, full curve, poor fit]"
13,CCN1CCN(c2cc(C)c3cc(NC(=S)NCc4cccs4)ccc3n2)CC1,"inconclusive: 18.4 µM [activator, single point]"
14,O=C(Nc1ccc(F)cc1)c1cc(S(=O)(=O)N2CCOCC2)cs1,"inconclusive: 20.6 µM [activator, single point]"
15,Oc1cccc2ccc(N3CCOCC3)nc12,inactive
16,CCc1ccc(-c2cc(C)no2)cc1S(=O)(=O)N1CCN(c2ccccc2)CC1,"inconclusive: 23.1 µM [activator, single point]"
17,O=C(NNC(=O)c1ccc([N+](=O)[O-])o1)c1ccccc1,"inconclusive: 29.1 µM [activator, single point]"
18,O=C(Nc1ccc2nc3n(c(=O)c2c1)CCCC3)c1cccc([N+](=O)[O-])c1,inactive
19,C=CCn1c(C)cc(C2=NNC(=NCc3ccccc3)SC2)c1C,"inconclusive: 29.1 µM [activator, single point]"
20,CC(C)(C)C1CCC(=NNC(=S)NCc2ccccc2)CC1 (centres undefined),"inconclusive: 29.1 µM [activator, single point]"
21,C=CCN1C(=O)C2(OCCCO2)c2cccc(C)c21,"inconclusive: 0.651 µM [activator, full curve, poor fit]"
22,Cc1cccc(Cn2cccc2/C=C2/C(=N)N3C=CSC3=NC2=O)c1,inactive
23,CCN1CCN(Cc2c(O)ccc3c2O/C(=C\C=C\c2ccccc2)C3=O)CC1,"inconclusive: 18.4 µM [activator, single point]"
24,COc1cc2c(cc1Cl)/C(=C\CCN(C)C)c1ccccc1S2,"inconclusive: 23.1 µM [activator, single point]"

# Two of the compounds above, as tab-separated lines:
row	Structure (SMILES)	Potency
4	CCN(C[C@H]1N[C@@](CC)(C(=O)OC)[C@H]2C(=O)N(C)C(=O)[C@@H]12)S(=O)(=O)c1ccccc1	inactive
15	Oc1cccc2ccc(N3CCOCC3)nc12	inactive
